In the supplement of paper PMC6411743 one finds NP40-soluble protein abundance data, which are given here for 23 targets.

Amino acid sequences for entries named in this document (tags omitted). A change or cut given only in a name is not applied to a line headed by its entry.
UniProt P68104, whole entry: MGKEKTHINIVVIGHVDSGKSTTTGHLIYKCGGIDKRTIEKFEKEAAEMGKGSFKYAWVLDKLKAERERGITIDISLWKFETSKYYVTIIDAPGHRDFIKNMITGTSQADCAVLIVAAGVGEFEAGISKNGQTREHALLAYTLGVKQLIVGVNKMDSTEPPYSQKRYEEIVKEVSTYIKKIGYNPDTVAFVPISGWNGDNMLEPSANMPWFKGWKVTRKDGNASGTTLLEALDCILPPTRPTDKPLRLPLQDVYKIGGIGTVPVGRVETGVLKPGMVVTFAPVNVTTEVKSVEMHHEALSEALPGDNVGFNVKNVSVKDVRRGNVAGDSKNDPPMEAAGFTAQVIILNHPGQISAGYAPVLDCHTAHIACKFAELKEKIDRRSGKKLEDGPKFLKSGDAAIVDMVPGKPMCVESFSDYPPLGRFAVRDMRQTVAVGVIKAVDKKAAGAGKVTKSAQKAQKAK
UniProt Q00013: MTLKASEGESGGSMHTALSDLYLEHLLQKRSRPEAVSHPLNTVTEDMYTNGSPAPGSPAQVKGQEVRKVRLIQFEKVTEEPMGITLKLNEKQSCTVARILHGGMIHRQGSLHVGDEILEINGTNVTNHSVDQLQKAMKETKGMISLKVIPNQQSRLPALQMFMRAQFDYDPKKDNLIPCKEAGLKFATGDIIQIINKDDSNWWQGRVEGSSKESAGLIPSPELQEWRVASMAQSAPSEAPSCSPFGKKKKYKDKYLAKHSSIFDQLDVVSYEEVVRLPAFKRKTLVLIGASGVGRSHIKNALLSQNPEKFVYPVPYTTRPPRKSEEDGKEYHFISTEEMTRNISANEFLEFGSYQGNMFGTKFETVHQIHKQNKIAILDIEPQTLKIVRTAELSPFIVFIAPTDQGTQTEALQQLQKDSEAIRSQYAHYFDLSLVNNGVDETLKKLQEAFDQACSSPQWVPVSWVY
UniProt P62310: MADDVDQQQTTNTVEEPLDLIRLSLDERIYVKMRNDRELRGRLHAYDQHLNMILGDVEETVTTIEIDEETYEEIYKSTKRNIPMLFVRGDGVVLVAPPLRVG
UniProt P56377: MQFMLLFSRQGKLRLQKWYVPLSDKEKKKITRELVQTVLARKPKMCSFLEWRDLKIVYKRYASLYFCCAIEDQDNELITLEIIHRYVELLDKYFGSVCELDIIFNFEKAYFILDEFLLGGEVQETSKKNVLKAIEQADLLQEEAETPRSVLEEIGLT
UniProt Q07960: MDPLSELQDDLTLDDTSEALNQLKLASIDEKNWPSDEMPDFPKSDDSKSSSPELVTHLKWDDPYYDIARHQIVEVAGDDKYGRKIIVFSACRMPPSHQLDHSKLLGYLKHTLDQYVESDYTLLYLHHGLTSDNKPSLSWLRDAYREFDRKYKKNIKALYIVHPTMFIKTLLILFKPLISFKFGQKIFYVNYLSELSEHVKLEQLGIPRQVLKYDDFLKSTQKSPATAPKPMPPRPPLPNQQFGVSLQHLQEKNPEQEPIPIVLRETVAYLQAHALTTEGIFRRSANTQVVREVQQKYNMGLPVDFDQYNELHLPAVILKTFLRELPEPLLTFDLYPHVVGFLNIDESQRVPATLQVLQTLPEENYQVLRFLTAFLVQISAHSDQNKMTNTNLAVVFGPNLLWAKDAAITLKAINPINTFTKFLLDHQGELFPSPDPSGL
UniProt Q05D32: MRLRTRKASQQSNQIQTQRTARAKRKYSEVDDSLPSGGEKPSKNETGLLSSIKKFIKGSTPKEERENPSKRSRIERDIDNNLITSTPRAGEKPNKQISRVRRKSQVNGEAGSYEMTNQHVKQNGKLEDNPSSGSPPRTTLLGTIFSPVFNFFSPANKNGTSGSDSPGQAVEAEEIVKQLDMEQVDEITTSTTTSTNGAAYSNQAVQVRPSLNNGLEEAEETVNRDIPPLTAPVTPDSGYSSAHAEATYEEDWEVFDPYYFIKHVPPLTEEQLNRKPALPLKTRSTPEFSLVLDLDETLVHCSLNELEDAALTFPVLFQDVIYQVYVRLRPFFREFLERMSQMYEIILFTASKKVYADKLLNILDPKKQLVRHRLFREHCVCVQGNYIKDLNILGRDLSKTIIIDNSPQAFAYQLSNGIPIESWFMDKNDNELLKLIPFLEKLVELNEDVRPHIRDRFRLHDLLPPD
UniProt Q08257: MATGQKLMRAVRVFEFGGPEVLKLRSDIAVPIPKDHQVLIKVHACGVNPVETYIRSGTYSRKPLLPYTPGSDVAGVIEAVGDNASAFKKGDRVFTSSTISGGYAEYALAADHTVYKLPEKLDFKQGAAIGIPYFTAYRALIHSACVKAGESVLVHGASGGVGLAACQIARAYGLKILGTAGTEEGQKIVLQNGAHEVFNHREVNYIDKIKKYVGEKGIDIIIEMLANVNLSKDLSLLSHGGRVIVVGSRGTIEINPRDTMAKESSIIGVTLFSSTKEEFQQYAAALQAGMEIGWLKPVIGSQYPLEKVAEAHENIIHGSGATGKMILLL
UniProt P61244, whole entry: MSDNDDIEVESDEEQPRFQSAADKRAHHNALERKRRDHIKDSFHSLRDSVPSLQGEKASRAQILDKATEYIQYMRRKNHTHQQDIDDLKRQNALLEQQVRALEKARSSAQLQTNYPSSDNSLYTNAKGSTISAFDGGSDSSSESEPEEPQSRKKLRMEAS
UniProt Q00059: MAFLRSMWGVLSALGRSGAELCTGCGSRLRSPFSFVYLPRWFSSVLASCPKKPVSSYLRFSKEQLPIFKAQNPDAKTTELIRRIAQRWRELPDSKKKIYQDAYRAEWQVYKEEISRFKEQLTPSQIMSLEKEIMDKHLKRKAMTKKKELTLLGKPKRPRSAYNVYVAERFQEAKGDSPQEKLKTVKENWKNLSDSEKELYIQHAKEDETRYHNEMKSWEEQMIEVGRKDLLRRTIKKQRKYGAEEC
UniProt P61960, whole entry: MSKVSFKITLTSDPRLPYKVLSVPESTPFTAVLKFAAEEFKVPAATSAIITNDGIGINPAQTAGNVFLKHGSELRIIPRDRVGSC
UniProt Q02086: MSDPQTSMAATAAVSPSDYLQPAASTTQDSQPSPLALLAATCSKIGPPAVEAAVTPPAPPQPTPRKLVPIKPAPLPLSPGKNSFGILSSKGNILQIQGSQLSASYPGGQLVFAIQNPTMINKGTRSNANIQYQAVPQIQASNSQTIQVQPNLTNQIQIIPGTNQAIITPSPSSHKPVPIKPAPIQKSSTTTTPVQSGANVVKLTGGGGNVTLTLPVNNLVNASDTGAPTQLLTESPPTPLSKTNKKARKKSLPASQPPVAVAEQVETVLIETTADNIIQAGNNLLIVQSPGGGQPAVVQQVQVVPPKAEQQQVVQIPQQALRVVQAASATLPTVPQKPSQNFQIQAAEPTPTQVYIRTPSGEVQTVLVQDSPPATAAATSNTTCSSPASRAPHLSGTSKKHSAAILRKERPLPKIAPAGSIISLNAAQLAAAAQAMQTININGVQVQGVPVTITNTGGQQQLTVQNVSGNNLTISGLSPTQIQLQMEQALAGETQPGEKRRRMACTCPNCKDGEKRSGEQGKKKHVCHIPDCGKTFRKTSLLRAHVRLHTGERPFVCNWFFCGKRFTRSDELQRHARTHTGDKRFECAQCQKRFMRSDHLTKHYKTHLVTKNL
UniProt P55957: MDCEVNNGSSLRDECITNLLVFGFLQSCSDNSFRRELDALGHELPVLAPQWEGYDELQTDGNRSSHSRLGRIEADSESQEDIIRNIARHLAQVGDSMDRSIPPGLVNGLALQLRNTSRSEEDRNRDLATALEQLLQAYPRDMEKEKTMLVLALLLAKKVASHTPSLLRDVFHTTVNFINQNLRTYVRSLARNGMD
UniProt Q00534, whole entry: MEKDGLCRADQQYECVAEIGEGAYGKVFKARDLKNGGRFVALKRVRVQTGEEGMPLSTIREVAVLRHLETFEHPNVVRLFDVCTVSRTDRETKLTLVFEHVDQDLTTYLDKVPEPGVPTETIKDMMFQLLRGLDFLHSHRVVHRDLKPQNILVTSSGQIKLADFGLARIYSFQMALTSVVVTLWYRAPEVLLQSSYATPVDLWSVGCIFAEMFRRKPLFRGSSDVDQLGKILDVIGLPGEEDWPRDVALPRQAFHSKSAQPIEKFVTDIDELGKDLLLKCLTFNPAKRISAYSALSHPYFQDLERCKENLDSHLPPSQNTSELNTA
UniProt P82909: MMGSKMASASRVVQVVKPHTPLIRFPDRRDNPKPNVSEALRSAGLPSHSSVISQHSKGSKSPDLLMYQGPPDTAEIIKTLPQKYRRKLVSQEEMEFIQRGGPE
UniProt P62318, whole entry: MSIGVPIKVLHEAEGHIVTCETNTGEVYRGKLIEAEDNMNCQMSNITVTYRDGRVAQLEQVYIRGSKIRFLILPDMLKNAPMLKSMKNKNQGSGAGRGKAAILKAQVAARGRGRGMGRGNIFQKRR
UniProt P61006: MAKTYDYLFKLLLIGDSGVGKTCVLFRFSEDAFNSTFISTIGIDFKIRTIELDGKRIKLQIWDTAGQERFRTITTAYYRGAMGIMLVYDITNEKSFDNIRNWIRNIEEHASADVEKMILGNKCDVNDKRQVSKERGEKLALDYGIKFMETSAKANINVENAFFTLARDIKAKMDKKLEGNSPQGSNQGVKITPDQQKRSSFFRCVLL
UniProt P61966: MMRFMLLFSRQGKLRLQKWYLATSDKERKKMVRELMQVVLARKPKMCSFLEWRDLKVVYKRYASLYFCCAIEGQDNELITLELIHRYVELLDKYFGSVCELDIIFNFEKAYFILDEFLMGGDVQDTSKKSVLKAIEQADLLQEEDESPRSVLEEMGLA
UniProt P55795: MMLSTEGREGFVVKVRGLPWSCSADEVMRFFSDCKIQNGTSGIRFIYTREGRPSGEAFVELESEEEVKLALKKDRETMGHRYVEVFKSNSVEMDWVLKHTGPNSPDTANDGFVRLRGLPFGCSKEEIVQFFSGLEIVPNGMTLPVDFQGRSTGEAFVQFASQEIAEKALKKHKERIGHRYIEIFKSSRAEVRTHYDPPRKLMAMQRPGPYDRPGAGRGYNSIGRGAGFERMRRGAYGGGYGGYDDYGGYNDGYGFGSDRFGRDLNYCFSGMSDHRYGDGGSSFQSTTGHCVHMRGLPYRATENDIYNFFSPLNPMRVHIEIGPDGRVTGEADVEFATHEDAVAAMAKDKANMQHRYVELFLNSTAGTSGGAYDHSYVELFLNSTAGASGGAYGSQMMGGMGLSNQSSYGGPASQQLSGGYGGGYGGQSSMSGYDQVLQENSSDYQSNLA
UniProt Q02809: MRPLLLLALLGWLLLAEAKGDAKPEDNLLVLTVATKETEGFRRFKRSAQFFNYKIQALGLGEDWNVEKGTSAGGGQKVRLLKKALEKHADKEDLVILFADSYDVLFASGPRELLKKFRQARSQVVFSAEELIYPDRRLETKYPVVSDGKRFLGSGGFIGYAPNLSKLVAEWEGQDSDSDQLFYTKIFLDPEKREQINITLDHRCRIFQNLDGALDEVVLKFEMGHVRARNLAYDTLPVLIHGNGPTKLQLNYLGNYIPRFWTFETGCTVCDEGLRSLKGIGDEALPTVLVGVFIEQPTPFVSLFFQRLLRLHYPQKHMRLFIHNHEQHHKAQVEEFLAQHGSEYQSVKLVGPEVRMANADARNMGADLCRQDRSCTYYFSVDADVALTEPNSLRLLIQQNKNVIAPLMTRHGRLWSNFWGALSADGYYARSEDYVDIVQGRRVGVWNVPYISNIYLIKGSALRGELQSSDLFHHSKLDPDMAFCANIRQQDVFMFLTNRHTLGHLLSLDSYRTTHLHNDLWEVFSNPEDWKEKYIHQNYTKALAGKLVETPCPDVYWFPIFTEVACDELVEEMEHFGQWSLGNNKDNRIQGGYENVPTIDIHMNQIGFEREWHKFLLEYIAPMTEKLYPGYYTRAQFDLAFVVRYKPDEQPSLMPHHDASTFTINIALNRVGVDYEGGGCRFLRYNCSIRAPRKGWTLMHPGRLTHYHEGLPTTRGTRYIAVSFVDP

± gives the standard deviation of the averaged measurements. The list shows a part of the results, in another mix than the full data. Small differences around the control level are noise.

Compound in this assay: Nc1ncnc2c1ncn2[C@@H]1O[C@H](COP(=O)(O)OP(=O)(O)NP(=O)(O)O)[C@@H](O)[C@H]1O [adenylyl imidodiphosphate]
Nature of the assay: NP40-soluble protein abundance relative to vehicle (solubility fold change) (ratio); higher = more soluble protein in presence of AMP-PNP. The method, boiled down: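 Jurkat crude lysate (Dounce-homogenised) was treated with eight concentrations from 0.1 to 10 mM for 10 min at room temperature, then 3 min at 37 °C. It was solubilised with 0.8% NP40 and benzonase (60 min, 4 °C) and ultracentrifuged, and the supernatant was TMT-labelled for LC-MS/MS. Intensities were vsn-normalised, and the value is the fold change against the NP40-processed vehicle per replicate, from three independent experiments.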

Take UniProt P68104 and related entries: the NP40-soluble protein abundance (concentration: 0.1mM) was found to be 0.997 ± 0.04 and the NP40-soluble protein abundance (concentration: 0.5mM) came to 0.978 ± 0.01.

As for MPP1 (UniProt Q00013), the NP40-soluble protein abundance runs as follows: (concentration: 0.1mM) 1.01 ± 0.011; (concentration: 0.5mM) 0.993 ± 0.04.

Consider UniProt P62310, for which the NP40-soluble protein abundance runs as follows: (concentration: 0.1mM) 0.987 ± 0.011; (concentration: 0.5mM) 0.965 ± 0.026.

As to AP1S2 (UniProt P56377), the NP40-soluble protein abundance (concentration: 0.1mM) is 1.01 ± 0.049 and the NP40-soluble protein abundance (concentration: 0.5mM) is 1.024 ± 0.0088.

In the case of ARHGAP1 (UniProt Q07960), the NP40-soluble protein abundance (concentration: 0.1mM) was found to be 0.97 ± 0.039 and the NP40-soluble protein abundance (concentration: 0.5mM) came out at 0.979 ± 0.018.

With CTDSPL2 (UniProt Q05D32), the NP40-soluble protein abundance by setting is: (concentration: 0.1mM) 0.985 ± 0.019; (concentration: 0.5mM) 1.01 ± 0.019.

For CRYZ (UniProt Q08257), the NP40-soluble protein abundance runs as follows: (concentration: 0.1mM) 1.02 ± 0.04; (concentration: 0.5mM) 0.996 ± 0.051.

Regarding UniProt P61244 and related entries, the NP40-soluble protein abundance (concentration: 0.1mM) is 0.941 ± 0.058 and the NP40-soluble protein abundance (concentration: 0.5mM) worked out at 0.921 ± 0.087.

Regarding UniProt P62805, the NP40-soluble protein abundance was 1.03 ± 0.11 (concentration: 0.1mM) and 0.973 ± 0.099 (concentration: 0.5mM).

Turning to TFAM (UniProt Q00059), the NP40-soluble protein abundance reads like this: (concentration: 0.1mM) 1.02 ± 0.12; (concentration: 0.5mM) 1.05 ± 0.17.

As for MRPS6 (UniProt P82932), the NP40-soluble protein abundance (concentration: 0.1mM) was 1.03 ± 0.024 and the NP40-soluble protein abundance (concentration: 0.5mM) turned out to be 1.07 ± 0.11.

With UniProt P61960 and related entries, the NP40-soluble protein abundance (concentration: 0.1mM) worked out at 0.986 ± 0.057 and the NP40-soluble protein abundance (concentration: 0.5mM) amounted to 0.945 ± 0.032.

Turning to UniProt Q02086 and related entries, the NP40-soluble protein abundance amounted to 1 ± 0.023 (concentration: 0.1mM) and 1.01 ± 0.013 (concentration: 0.5mM).

On to UniProt P55957 and related entries, for which the NP40-soluble protein abundance (concentration: 0.1mM) is 1.02 ± 0.068 and the NP40-soluble protein abundance (concentration: 0.5mM) is 1.06 ± 0.073.

Turning to CDK6 (UniProt Q00534), the NP40-soluble protein abundance by setting is: (concentration: 0.1mM) 0.992 ± 0.014; (concentration: 0.5mM) 0.9923 ± 0.0095.

For the target MRPS36 (UniProt P82909), the NP40-soluble protein abundance turned out to be 1 ± 0.048 (concentration: 0.1mM) and 1.05 ± 0.02 (concentration: 0.5mM).

As for UniProt P62318 and related entries, the NP40-soluble protein abundance came out at 1.06 ± 0.12 (concentration: 0.1mM) and 1.04 ± 0.084 (concentration: 0.5mM).

Turning to RAB8A (UniProt P61006), the NP40-soluble protein abundance reads like this: (concentration: 0.1mM) 0.975 ± 0.03; (concentration: 0.5mM) 0.951 ± 0.026.

Consider UniProt P61966, for which the NP40-soluble protein abundance runs as follows: (concentration: 0.1mM) 1.02 ± 0.036; (concentration: 0.5mM) 1.04 ± 0.036.

As to HNRNPH2 (UniProt P55795), the NP40-soluble protein abundance (concentration: 0.1mM) came out at 0.9975 ± 0.0027 and the NP40-soluble protein abundance (concentration: 0.5mM) was determined as 1.01 ± 0.04.

On to UniProt P62241 and related entries, for which the NP40-soluble protein abundance runs as follows: (concentration: 0.1mM) 1.02 ± 0.032; (concentration: 0.5mM) 0.992 ± 0.044.

On to UniProt P62495, for which the NP40-soluble protein abundance is, setting by setting: (concentration: 0.1mM) 0.989 ± 0.033; (concentration: 0.5mM) 0.98 ± 0.063.

In the case of UniProt Q02809 and related entries, the NP40-soluble protein abundance (concentration: 0.1mM) is 1.035 ± 0.0024 and the NP40-soluble protein abundance (concentration: 0.5mM) is 1.02 ± 0.016.
